According to patent publication US10471082B2, “Flavivirus protease inhibitors” (priority 2012, dated 2019):
Some of these results come from one statement about several compounds together.

Test system: Dengue virus
Test: Plaque assay for anti-dengue viral activity
Assay type: cell-based
Source text: The efficacy of the compounds was also examined in cell-based assays performed in mammalian cells. Mammalian cells are the host for replication of the virus; a compound added to the growth medium of the mammalian cell in which a replicon RNA or dengue virus is replicating, the compound of interest could permeate the cell and interfere with the replication process. If there is a quantitative read-out of replication efficiency, the potency of the inhibitor compound could be evaluated in a quantifiable manner. There are two types of quantifiable assays available both employing mammalian cells; the first is the Baby Hamster Kidney (BHK) or monkey kidney (Vero) cells harboring DENV-2 or WNV replicon RNA, respectively, in a continuously replicating state and these are “stable replicon-expressing” cells. The second assay is infectivity assays in which mammalian cells are infected with DENV and the compound of interest is added at various concentrations and incubated. The inhibition of infectivity of the virus by the compound is measured by the extent of reduction of the titer of virus determined by plaque assay.
BHK 21 cells (1×10^5) were plated onto each well of 12 well-cell culture plate. […] One hour later, the Dengue virus was added (MOI:1). After an additional 48 hours, the supernatant was collected and tested by the plaque assay. […]

SMILES | fold reduction of virus titer (20 μM compound) | fold reduction of virus titer (5 μM compound)
O=c1c(Oc2ccccc2)c(C(F)(F)F)oc2c(O)c(O)ccc12 [Compound IV] | more than 10 fold | –
O=C(OC[C@H]1OC(OC(=O)c2cc(O)c(O)c(OC(=O)c3cc(O)c(O)c(O)c3)c2)C(OC(=O)c2cc(O)c(O)c(OC(=O)c3cc(O)c(O)c(O)c3)c2)[C@@H](OC(=O)c2cc(O)c(O)c(OC(=O)c3cc(O)c(O)c(O)c3)c2)C1OC(=O)c1cc(O)c(O)c(OC(=O)c2cc(O)c(O)c(O)c2)c1)c1cc(O)c(O)c(OC(=O)c2cc(O)c(O)c(O)c2)c1 (some centres unmarked) [Compound VII, Tannic acid, reference compound] | – | more than 10 fold
